Measured values from PubChem BioAssay AID743255 (National Center for Advancing Translational Sciences (NCATS), 2014).
In all, about 390,000 compounds went through this assay and about 910 (0.23%) were called active. The inconclusive results got no clear call from the source; some entries with a clear call stand among them for comparison. Calls come from the whole dose curve; as a rule, active = well fitted inhibition curve with a large enough effect; inconclusive = small, poorly fitted or top-dose-only effect; inactive = no such curve, though single readings can be large or run the other way. Where the call is inconclusive, the potency comes from a doubtful curve fit. Non-standard residues stand in square brackets, D forms with d. Residues, ends and D or L forms follow the SMILES beside them. *: point of attachment. Ac5c = NC1(C(=O)O)CCCC1; Cbz = O=C(OCc1ccccc1)*

Sequences of proteins named here, by UniProt entry; tags and fusion partners are left off. A change or cut given only in a name is not applied to a line headed by its entry.
UniProt O94782: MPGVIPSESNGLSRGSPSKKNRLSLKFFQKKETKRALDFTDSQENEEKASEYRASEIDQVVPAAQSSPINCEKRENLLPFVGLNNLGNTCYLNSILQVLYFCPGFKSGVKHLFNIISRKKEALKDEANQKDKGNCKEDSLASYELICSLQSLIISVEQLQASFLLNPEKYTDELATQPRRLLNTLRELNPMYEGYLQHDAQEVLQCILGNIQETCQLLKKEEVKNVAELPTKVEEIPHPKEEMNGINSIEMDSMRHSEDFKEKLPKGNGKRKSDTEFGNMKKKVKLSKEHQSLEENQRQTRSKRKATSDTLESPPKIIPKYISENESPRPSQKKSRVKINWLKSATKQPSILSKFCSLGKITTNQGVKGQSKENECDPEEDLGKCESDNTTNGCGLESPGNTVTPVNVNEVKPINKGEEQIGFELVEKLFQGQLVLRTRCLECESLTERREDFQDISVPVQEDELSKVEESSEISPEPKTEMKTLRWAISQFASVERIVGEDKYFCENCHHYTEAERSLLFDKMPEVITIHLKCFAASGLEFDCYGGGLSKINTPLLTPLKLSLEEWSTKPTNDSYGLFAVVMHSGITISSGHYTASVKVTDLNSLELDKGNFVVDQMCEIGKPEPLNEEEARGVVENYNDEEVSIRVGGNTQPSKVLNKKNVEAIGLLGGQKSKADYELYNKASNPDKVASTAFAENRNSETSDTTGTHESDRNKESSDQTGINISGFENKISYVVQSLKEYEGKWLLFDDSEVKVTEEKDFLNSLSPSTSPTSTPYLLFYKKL

Each compound was assayed against Ubiquitin carboxyl-terminal hydrolase 1 (Homo sapiens) (UniProt O94782) (assay: Inhibitors of USP1/UAF1: Primary Screen). Details: recombinant USP1/UAF1, Ub-Rhodamine cleavage fluorescence; series mostly up to 57.1 µM.
Outline: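 Step one: compound is pinned into 1nM USP1/UAF1 in HEPES pH 7.8 buffer with TCEP. Step two: 15 min room-temperature incubation. Step three: Ub-Rho (150nM final) starts cleavage, tracked by fluorescence over six one-minute reads.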
Note: nearly all actives have a fitted effect of over 60% in size.
Potency is the fitted concentration of half-maximal effect.

SMILES	Potency
COc1ccc(-c2nc(SC(C)C(=O)NC3CC3)n[nH]2)cc1 (configuration not stated)	inconclusive: 0.398 µM [inhibitor, full curve]
CCOC(=O)c1ccc(N=C2SC(C(=O)Nc3ccc(C(=O)O)cc3)CC(=O)N2Cc2cccs2)cc1 (configuration not stated)	inconclusive: 50.1 µM [inhibitor, partial curve, poor fit]
C[C@H](CO)N1C[C@H](C)[C@@H](CN(C)Cc2ccccc2)Oc2c(NC(=O)C3CCCCC3)cccc2C1=O	inconclusive: 56.2 µM [inhibitor, partial curve, poor fit]
N#Cc1c(-c2cccs2)nc(SCc2ccc(Cl)cc2)[nH]c1=O	inconclusive: 35.5 µM [inhibitor, partial curve]
Cc1cccc(C(=O)NC(NCc2ccco2)C(Cl)(Cl)Cl)c1 (configuration not stated)	inactive
COc1ccc(N)cc1-n1c(C)ccc1C	inconclusive: 17.8 µM [inhibitor, partial curve]
O=c1oc2ccc3ccccc3c2cc1-c1nnc(Nc2cc(C(F)(F)F)ccc2Cl)s1	inconclusive: 20 µM [inhibitor, partial curve, poor fit]
COc1ccc2[nH]cc(CCNC(=O)Cc3ccc(F)cc3)c2c1	inactive
CCOC(=O)C1CCN(c2nc3ccccc3nc2Cl)CC1	inconclusive: 0.251 µM [inhibitor, full curve, poor fit]
CCC(c1nnnn1C1CCCC1)N(Cc1cccs1)Cc1cc2cc(C)ccc2[nH]c1=O (configuration not stated)	inactive
Cc1cc(=O)n2ccccc2c1C#N	inactive
CCCCOC(=O)Nc1ccc(C(=O)OCCC)cc1	inconclusive: 50.1 µM [inhibitor, partial curve, poor fit]
CC(=O)Nc1cccc(NC(=O)CSc2nccn2C2CCCC2)c1	inconclusive: 0.398 µM [inhibitor, full curve, poor fit]
COCCNc1nc(C)cc(-c2cc(C(=O)Nc3ccccc3)on2)n1	inconclusive: 56.2 µM [inhibitor, partial curve, poor fit]
O=C(Nc1ccccc1F)c1nc(SCc2ccccc2F)ncc1Cl	inconclusive: 17.8 µM [inhibitor, partial curve, poor fit]
CCOc1ccc(N(CC)C(=O)CCS(=O)(=O)c2cccc3nonc23)cc1	inconclusive: 7.94 µM [inhibitor, partial curve, poor fit]
CCN(CCCNC(=O)c1cc(Nc2ccc(OC)cc2)nc2ccccc12)c1cccc(C)c1	inconclusive: 0.794 µM [inhibitor, full curve, poor fit]
Cc1noc(C)c1NC(=O)N(C)C[C@H]1Oc2ccc(NC(=O)Nc3ccc(C(F)(F)F)cc3)cc2C(=O)N([C@H](C)CO)C[C@@H]1C	inconclusive: 44.7 µM [inhibitor, partial curve, poor fit]
O=C(NCc1nc2ccccc2n1Cc1ccccc1Cl)c1ccccc1	inconclusive: 10 µM [inhibitor, partial curve, poor fit]
COC(=O)c1ccccc1NC(=O)c1oc2ccc3c(c2c1C)C(=O)CC(C)(C)O3	inconclusive: 50.1 µM [inhibitor, partial curve, poor fit]
CCOC(=O)c1cc2c(N)c(C(=O)c3cc(C#N)c(SC)nc3C)sc2nc1C	inconclusive: 35.5 µM [inhibitor, single point]

SMILES	Potency
COC(=O)c1cc2sc(Cl)cc2n1CC(=O)Nc1cc(OC)cc(OC)c1	inconclusive: 8.91 µM [inhibitor, partial curve, poor fit]
Oc1ccc(/C=N/NC(=S)Nc2cccnc2)c(O)c1O	inconclusive: 50.1 µM [inhibitor, partial curve, poor fit]
Cc1noc(/C=C/N(C)C)c1S(=O)(=O)N(C)Cc1ccc(F)cc1	inactive
Oc1ccc2ccccc2c1C=NCc1cn2ccsc2n1	inactive
COC(=O)c1sccc1NC(=O)c1ccc(OC)c([N+](=O)[O-])c1	inconclusive: 0.316 µM [inhibitor, full curve, poor fit]
CCOc1ccc(S(=O)(=O)Nc2cccc(Cl)c2)cc1	inconclusive: 35.5 µM [inhibitor, partial curve, poor fit]
Cc1ccc(NC(=O)NC(C)c2c(-n3cccc3)sc(C)c2C)cc1F (configuration not stated)	inconclusive: 44.7 µM [inhibitor, partial curve]
Cc1ccc2c(C)c(C(=O)NCC(c3ccc(Cl)cc3)N3CCOCC3)oc2c1 (configuration not stated)	inconclusive: 5.62 µM [inhibitor, partial curve, poor fit]
CCn1c(O)c(/C=C2\C=NN=C2c2ccc(C)cc2)sc1=S	inconclusive: 44.7 µM [inhibitor, partial curve, poor fit]
Cc1nc(C(C)NC(=O)c2ccc(OC3CCN(Cc4ccccn4)CC3)cc2)c(C)s1 (configuration not stated)	inconclusive: 0.282 µM [inhibitor, full curve, poor fit]
Cc1ccc(-c2nc(S(=O)(=O)c3ccc(C)cc3)c(SCC(=O)c3ccccc3)o2)cc1	inactive
CCOC(=O)C1CCN(c2cc3c(cc2NC(=O)c2cc(OC)ccc2Br)n(C)c(=O)n3C)CC1	inactive
CCN(CC)C(=O)c1ccccc1NC(=O)c1cccc(S(=O)(=O)N2CCC(C)CC2)c1	inconclusive: 44.7 µM [inhibitor, partial curve, poor fit]
N#C/C(=C\c1cccnc1)c1ccccc1[N+](=O)[O-]	inconclusive: 35.5 µM [inhibitor, single point]
COc1ccc(-c2ccc3c(c2)S(=O)(=O)c2cccc(C(=O)NCc4cc(C)oc4C(F)(F)F)c2C3=O)cc1OC	inconclusive: 63.1 µM [inhibitor, partial curve, poor fit]
Nc1cc(N)c(OCC(F)(F)F)cc1OCC(F)(F)F	active: 25.1 µM
C[C@H](CO)N1C[C@H](C)[C@@H](CN(C)CC2CCOCC2)Oc2cc(C#Cc3ccccc3F)ccc2S1(=O)=O	inconclusive: 39.8 µM [inhibitor, partial curve, poor fit]
CC(C)C[C@H](NC(=O)c1nc[nH]c1C(=O)N[C@@H](CC(C)C)C(=O)OC(C)(C)C)C(=O)OC(C)(C)C	inactive
C#CCN(C[C@@H]1[C@@H](OC(=O)Nc2c(C)noc2C)[C@@H](OC(=O)Nc2c(C)noc2C)Cn2c(=O)n(CCCCCC)c(=O)n21)S(=O)(=O)c1ccc(C)cc1	inactive
O=c1[nH]c2ccccc2nc1/C=C/c1ccc(O)cc1	inconclusive: 0.112 µM [inhibitor, full curve, poor fit]
CC1(C)Cc2ccccc2-c2nnc(-c3cccnc3)n21	inconclusive: 0.631 µM [inhibitor, full curve]

SMILES	Potency
CC(C)c1ccccc1NC(=O)COC(=O)c1c2c(nc3ccccc13)CCN(Cc1ccccc1)C2	inconclusive: 44.7 µM [inhibitor, partial curve]
CCCCCCC(=O)Nc1nc(C)c(-c2csc(Nc3cc(OC)ccc3OC)n2)s1	inconclusive: 0.316 µM [inhibitor, full curve, poor fit]
O=C(O)CNC(=O)C1(NC(=O)OCc2ccccc2)CCCC1 (Cbz-[Ac5c]-Gly-OH)	inconclusive: 7.08 µM [inhibitor, single point]
CCCC12CN3CCN(CC(C3)/C1=N\NC(=O)c1ccccc1Cl)C2	inconclusive: 56.2 µM [inhibitor, partial curve, poor fit]
C/C(=N\NC(=O)c1cccc(Br)c1)c1ccccn1	inactive
O=C1c2ccccc2S(=O)(=O)c2cc(N3CCC(C(=O)N4CCCCC4)CC3)ccc21	inconclusive: 35.5 µM [inhibitor, partial curve, poor fit]
c1ccc(-c2ccc(-c3ccccc3)[nH]2)cc1	inconclusive: 50.1 µM [inhibitor, partial curve, poor fit]
COc1cccc(CN(C)C(=O)COc2ccc(C(=O)c3ccc(Cl)cc3)cc2)c1OC	inconclusive: 20 µM [inhibitor, partial curve, poor fit]
CC(=O)NNc1nc(-c2ccccc2)cs1	inactive
CCN(CC)CCn1c(NCc2cc(OC)ccc2OC)nc2ccccc21	inactive
O=C(OCC1CCCO1)c1ccc2c(c1)N(Cc1ccccc1F)C(=O)c1ccccc1S2(=O)=O (configuration not stated)	inconclusive: 11.2 µM [inhibitor, partial curve, poor fit]
O=C(CCN1C(=O)/C(=C\c2ccco2)SC1=S)Nc1ccc(C(=O)O)c(O)c1	inconclusive: 50.1 µM [inhibitor, partial curve, poor fit]
CCCCCC/C=C/c1ccc(OC)c([C@H]2[C@H]3C=CC[C@@H](C)[C@@H]3C(=O)N2Cc2ccccc2)c1	inconclusive: 20 µM [inhibitor, partial curve]
Cc1ccc(OCC(=O)N(C)CC(=O)Nc2ccc(F)c(F)c2F)cc1	inactive
Cc1nn(CC(=O)NCc2ccccc2Br)c(=O)c2cc3occc3n12	inactive
Cc1onc(-c2ccccc2)c1CNC(=O)Nc1ccc(C(F)(F)F)cc1	inconclusive: 35.5 µM [inhibitor, partial curve]
CCOC(=S)SCC(=O)Nc1nc(-c2ccc(Br)cc2)cs1	inactive
COc1ccc(-n2nc(C(=O)Nc3ccc4c(c3)OCO4)c3ccccc3c2=O)cc1	inconclusive: 35.5 µM [inhibitor, partial curve, poor fit]
CCCCOc1ccc(C(=O)NCCc2csc3nc(-c4ccccc4F)nn23)cc1	inactive
C[C@H](CO)N1C[C@H](C)[C@@H](CN(C)C(=O)Nc2ccc3c(c2)OCO3)Oc2c(NC(=O)c3ccncc3)cccc2C1=O	inconclusive: 44.7 µM [inhibitor, partial curve, poor fit]

Structural class, the compounds so far with a COOH group
SMILES	Potency
CCOC(=O)c1ccc(N=C2SC(C(=O)Nc3ccc(C(=O)O)cc3)CC(=O)N2Cc2cccs2)cc1 (configuration not stated)	inconclusive: 50.1 µM [inhibitor, partial curve, poor fit]
O=C(O)CNC(=O)C1(NC(=O)OCc2ccccc2)CCCC1 (Cbz-[Ac5c]-Gly-OH)	inconclusive: 7.08 µM [inhibitor, single point]
O=C(CCN1C(=O)/C(=C\c2ccco2)SC1=S)Nc1ccc(C(=O)O)c(O)c1	inconclusive: 50.1 µM [inhibitor, partial curve, poor fit]
